Reference: the supplement of paper PMC12067093, “Discovery and optimisation of a covalent ligand for TRIM25 and its application to targeted protein ubiquitination” (Chemical Science, 2025)
Some of the results follow.

Chains of the proteins cited; added tags and fusions are not shown. Lines headed by an entry give the natural chain unless they say otherwise; changes in a name come on top.
UniProt O15164: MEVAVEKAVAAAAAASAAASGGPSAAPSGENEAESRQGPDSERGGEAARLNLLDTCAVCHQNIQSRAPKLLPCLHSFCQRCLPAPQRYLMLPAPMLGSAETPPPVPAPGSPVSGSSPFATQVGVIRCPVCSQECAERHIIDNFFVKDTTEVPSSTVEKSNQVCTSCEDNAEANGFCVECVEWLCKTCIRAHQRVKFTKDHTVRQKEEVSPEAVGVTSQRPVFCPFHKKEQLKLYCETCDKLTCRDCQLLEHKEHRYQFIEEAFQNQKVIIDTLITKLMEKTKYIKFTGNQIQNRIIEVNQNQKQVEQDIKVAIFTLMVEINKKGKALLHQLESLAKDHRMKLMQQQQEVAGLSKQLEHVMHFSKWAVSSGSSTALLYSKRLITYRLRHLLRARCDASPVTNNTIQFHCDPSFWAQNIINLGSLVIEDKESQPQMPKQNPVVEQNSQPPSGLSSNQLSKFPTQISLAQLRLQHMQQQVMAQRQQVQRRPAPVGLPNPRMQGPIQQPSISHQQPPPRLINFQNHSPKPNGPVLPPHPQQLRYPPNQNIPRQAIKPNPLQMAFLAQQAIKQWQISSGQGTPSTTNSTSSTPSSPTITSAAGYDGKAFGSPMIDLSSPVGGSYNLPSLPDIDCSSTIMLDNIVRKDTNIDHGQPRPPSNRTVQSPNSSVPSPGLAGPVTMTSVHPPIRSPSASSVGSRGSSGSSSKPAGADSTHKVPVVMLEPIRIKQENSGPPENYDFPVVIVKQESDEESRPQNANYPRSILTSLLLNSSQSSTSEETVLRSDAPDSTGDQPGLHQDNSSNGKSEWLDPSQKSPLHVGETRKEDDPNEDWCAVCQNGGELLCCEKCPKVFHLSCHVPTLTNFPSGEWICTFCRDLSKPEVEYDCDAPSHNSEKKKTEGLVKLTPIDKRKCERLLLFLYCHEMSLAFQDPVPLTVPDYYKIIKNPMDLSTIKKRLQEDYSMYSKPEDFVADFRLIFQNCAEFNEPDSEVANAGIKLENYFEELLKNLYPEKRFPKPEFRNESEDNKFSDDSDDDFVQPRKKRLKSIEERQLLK
UniProt Q8TBZ6: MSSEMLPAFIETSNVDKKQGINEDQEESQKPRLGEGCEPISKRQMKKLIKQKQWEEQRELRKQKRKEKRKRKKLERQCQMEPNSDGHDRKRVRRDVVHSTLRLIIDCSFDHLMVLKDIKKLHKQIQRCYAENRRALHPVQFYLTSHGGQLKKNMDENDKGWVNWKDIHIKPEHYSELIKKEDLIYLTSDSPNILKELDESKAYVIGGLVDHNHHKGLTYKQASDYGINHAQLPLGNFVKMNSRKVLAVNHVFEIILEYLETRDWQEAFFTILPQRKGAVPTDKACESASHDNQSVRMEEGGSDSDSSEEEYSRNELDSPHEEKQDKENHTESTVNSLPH
UniProt P06753, whole entry, looked up: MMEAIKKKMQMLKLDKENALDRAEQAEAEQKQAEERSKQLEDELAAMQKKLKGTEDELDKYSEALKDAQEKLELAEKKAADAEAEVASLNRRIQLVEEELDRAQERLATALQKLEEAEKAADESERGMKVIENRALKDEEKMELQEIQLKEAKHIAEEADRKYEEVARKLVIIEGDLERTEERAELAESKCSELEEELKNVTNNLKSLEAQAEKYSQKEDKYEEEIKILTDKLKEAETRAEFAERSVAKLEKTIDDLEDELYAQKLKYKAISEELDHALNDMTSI
UniProt Q9NQ86: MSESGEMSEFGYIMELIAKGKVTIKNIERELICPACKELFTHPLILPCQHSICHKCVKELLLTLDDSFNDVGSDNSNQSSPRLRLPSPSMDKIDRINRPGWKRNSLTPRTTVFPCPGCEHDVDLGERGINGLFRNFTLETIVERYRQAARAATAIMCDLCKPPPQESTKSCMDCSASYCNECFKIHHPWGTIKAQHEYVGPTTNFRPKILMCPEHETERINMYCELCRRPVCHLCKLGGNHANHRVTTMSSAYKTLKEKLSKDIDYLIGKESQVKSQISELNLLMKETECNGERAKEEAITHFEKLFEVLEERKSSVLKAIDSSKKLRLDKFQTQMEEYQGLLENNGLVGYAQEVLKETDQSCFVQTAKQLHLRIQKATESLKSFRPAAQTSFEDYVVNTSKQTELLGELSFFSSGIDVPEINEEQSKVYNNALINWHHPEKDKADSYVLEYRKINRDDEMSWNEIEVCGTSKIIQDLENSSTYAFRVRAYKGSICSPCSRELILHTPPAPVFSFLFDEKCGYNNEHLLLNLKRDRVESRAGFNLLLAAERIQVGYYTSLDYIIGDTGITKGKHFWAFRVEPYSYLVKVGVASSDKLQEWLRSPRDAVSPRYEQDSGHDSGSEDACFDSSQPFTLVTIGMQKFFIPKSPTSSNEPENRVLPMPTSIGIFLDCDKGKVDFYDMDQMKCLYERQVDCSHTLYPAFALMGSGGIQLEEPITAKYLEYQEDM
UniProt Q96PN7: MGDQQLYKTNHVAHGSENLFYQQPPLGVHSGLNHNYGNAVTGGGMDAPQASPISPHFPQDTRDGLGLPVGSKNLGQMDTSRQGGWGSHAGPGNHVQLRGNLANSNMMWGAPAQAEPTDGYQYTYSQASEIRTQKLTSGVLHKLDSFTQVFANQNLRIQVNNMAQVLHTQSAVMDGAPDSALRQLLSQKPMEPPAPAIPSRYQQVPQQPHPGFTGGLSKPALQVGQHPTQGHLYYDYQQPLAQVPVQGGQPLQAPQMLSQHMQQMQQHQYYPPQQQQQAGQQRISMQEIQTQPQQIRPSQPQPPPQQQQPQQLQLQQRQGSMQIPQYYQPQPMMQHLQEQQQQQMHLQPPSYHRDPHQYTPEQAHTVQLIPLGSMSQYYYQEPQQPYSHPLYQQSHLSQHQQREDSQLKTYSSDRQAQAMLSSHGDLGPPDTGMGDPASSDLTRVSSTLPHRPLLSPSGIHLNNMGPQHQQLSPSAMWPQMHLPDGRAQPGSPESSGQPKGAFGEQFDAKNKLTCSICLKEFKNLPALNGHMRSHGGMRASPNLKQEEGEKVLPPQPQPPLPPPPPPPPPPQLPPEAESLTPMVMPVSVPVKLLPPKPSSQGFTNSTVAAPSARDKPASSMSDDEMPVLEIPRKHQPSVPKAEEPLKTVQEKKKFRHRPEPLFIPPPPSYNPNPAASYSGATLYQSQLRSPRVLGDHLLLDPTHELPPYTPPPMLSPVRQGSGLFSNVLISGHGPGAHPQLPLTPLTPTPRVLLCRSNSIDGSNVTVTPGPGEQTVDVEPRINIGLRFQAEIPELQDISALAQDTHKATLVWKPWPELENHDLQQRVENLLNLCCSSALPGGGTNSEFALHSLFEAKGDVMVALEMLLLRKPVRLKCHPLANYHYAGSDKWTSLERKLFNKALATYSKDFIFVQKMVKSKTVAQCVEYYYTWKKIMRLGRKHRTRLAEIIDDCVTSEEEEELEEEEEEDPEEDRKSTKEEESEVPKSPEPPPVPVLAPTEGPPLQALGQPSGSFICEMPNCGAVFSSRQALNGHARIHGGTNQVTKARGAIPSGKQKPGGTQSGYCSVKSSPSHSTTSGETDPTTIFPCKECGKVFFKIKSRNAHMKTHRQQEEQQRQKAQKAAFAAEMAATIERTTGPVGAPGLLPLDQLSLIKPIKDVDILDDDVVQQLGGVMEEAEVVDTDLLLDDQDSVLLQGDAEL
UniProt Q9ULW0, whole entry, looked up: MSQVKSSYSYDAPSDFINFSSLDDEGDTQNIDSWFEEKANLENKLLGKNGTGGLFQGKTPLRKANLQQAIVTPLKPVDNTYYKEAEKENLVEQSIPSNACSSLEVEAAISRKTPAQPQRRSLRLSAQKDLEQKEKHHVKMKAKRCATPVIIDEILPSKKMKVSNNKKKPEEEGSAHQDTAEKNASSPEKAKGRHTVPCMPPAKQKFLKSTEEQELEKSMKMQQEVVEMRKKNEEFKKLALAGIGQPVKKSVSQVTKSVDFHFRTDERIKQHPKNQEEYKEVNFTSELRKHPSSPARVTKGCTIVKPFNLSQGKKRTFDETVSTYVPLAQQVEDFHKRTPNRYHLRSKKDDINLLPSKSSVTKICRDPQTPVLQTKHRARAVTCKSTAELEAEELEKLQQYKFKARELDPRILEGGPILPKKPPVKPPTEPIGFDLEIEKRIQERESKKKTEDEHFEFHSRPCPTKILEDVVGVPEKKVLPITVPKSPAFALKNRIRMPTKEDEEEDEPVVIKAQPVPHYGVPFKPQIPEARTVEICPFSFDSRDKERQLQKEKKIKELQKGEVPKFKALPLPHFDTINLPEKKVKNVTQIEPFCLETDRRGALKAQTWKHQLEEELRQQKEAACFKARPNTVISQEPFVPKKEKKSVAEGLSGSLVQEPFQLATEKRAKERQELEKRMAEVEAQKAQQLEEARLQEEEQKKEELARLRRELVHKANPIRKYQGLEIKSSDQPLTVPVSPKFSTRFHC
UniProt Q14142: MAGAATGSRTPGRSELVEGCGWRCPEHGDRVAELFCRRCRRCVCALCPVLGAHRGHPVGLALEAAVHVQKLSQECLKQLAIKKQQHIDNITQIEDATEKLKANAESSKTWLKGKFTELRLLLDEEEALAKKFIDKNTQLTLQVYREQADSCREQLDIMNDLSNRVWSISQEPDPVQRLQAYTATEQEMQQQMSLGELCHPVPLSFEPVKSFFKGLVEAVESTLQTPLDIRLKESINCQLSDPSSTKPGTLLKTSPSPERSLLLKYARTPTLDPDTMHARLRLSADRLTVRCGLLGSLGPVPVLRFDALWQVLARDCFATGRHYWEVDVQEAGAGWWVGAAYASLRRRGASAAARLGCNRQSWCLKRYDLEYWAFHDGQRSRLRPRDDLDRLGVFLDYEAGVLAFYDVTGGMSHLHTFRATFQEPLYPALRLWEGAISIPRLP
UniProt Q8WVT3: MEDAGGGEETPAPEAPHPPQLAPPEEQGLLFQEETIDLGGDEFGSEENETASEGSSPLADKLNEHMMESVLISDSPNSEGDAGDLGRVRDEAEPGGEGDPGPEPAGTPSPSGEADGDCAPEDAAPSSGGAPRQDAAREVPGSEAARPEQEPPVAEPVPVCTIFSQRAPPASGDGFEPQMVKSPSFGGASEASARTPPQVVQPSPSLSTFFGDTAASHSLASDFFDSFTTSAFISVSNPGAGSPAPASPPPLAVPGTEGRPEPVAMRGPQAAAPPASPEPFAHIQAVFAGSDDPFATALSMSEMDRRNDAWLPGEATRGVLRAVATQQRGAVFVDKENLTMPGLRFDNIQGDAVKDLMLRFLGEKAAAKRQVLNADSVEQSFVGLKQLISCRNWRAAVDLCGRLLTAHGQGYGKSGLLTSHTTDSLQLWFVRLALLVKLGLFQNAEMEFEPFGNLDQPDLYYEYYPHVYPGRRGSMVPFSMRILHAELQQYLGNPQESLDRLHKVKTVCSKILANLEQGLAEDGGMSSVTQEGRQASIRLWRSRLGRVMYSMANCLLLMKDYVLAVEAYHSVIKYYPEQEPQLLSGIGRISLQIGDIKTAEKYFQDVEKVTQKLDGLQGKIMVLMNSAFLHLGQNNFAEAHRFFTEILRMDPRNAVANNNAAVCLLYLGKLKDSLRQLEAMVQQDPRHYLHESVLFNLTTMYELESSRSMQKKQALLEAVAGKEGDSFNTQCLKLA
UniProt Q15650: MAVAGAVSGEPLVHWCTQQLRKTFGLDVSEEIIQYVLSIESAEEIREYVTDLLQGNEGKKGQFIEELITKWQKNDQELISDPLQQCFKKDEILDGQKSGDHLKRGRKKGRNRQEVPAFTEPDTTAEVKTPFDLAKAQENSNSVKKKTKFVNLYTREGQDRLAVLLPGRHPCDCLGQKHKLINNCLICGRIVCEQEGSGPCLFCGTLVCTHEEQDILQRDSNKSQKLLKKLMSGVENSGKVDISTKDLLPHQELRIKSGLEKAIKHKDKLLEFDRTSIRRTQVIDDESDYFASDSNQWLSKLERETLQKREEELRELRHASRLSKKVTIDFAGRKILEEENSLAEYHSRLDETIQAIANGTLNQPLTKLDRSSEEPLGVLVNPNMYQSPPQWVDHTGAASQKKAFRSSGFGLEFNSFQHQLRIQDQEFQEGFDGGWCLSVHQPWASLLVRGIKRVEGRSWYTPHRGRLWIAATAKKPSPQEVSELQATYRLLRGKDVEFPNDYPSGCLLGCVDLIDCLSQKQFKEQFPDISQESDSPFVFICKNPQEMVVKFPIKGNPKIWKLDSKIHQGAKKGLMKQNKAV
UniProt Q9H3H1: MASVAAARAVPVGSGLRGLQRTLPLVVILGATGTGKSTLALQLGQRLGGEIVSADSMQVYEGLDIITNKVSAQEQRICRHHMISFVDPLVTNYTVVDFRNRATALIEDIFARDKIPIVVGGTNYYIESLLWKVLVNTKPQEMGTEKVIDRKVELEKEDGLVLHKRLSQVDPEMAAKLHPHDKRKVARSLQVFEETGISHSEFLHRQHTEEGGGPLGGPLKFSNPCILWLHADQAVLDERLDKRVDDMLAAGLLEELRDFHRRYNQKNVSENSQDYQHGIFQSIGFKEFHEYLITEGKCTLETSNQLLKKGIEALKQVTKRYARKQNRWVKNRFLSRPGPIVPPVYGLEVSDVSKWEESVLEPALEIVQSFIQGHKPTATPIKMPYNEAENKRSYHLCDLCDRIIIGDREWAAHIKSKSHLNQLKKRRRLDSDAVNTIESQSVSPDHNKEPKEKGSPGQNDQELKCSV

Compound: CC1Cc2ccccc2N1C(=O)C1CCCN(C1)C(=O)CCl (mixture of isomers) [TRIM25 ligand 11 (diastereomer mixture)]
Assay: probe-labelled cysteine peptide fold change vs DMSO (competition) (log2 fold change); higher = less target engagement (more negative = stronger competition)
Conditions: THP-1, incubation time: 4 h
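Also: competitive chemoproteomic profiling in live THP-1 cells with an iodoacetamide desthiobiotin (IA-DTB) probe, comparing probe-labelled peptide intensities in compound-treated cells against DMSO-treated controls.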

Row | Target | probe-labelled cysteine peptide fold change (10 µM) | probe-labelled cysteine peptide fold change (50 µM)
1 | TRIM24_O15164_127+134_CPVCSQECAER (UniProt O15164) | 0.103 | 0.0149
2 | TRAF3IP3_Q9Y228_35_CRPNVTTCR (UniProt Q9Y228) | 0.0245 | 0.0481
3 | TRMT10A_Q8TBZ6_107_LIIDCSFDHLMVLK (UniProt Q8TBZ6) | -0.0159 | 0.0514
4 | TPM3_P06753-2_154_CREMDEQIR (UniProt P06753) | 0.485 | 0.239
5 | TRIM25_Q14258_122_TCLVCMASFCQEHLQPHFDSPAFQDHPLQPPVR (UniProt Q14258) | -0.105 | -0.107
6 | TRAP1_Q12931_573_SPAAECLSEK (UniProt Q12931) | 0.218 | 0.114
7 | TREX1_Q9NSU2_77_ACSPAASEITGLSTAVLAAHGR (UniProt Q9NSU2) | 0.216 | 0.117
8 | TRIM36_Q9NQ86_363_ETDQSCFVQTAK (UniProt Q9NQ86) | 0.0132 | -0.0332
9 | TREX1_Q9NSU2_208_LYGQSPPDSHTAEGDVLALLSICQWRPQALLR (UniProt Q9NSU2) | 0.0866 | 0.304
10 | TRERF1_Q96PN7_517_LTCSICLK (UniProt Q96PN7) | 0.0605 | 0.138
11 | TRIM38_O00635_58_QETFCCPQCR (UniProt O00635) | -0.00855 | -0.000175
12 | TPP1_O14773_365_GLTLLFASGDSGAGCWSVSGR (UniProt O14773) | -0.14 | 0.117
13 | TRIM11_Q96F44_236_CQLPALGLLQDIK (UniProt Q96F44) | -0.0796 | 0.153
14 | TPX2_Q9ULW0_145_CATPVIIDEILPSK (UniProt Q9ULW0) | -0.077 | -0.276
15 | TRIM24_O15164_73_LLPCLHSFCQR (UniProt O15164) | 0.00462 | -0.0214
16 | TRIM25_Q14258_119_TCLVCMASFCQEHLQPHFDSPAFQDHPLQPPVR (UniProt Q14258) | 0.521 | 0.461
17 | TRIP6_Q15654_339+342_CATCSQPILDR (UniProt Q15654) | 0.14 | 0.0825
18 | TRIM14_Q14142_42_CVCALCPVLGAHR (UniProt Q14142) | 0.17 | 0.303
19 | TRAPPC12_Q8WVT3_663_NAVANNNAAVCLLYLGK (UniProt Q8WVT3) | -0.00759 | 0.17
20 | TRIM25_Q14258_176_EFFCPEHSECICHICLVEHK (UniProt Q14258) | 0.103 | 0.153
21 | TRAPPC10_P48553_1025_WTEEPPPSLHCR (UniProt P48553) | 0.197 | 0.0441
22 | TRIP4_Q15650_187_LINNCLICGR (UniProt Q15650) | -0.00907 | -0.0574
23 | TRAFD1_O14545_135_THPEVCGR (UniProt O14545) | -0.0543 | -0.0761
24 | TRIT1_Q9H3H1_225_FSNPCILWLHADQAVLDER (UniProt Q9H3H1) | 0.0869 | 0.153

Full records from above.
TRAPPC12_Q8WVT3_663_NAVANNNAAVCLLYLGK (UniProt Q8WVT3) is listed as probe-labelled cysteine peptide fold change (10 µM): -0.00759; probe-labelled cysteine peptide fold change (50 µM): 0.17
TRIM14_Q14142_42_CVCALCPVLGAHR (UniProt Q14142) is listed as probe-labelled cysteine peptide fold change (10 µM): 0.17; probe-labelled cysteine peptide fold change (50 µM): 0.303
